{"source": "PubChem BioAssay AID1159584 (Peter MacCallum Cancer Centre, 2016)", "aim": "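Knock-downs that harm CDH1-null cells more than parental MCF10A cells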 (primary screen)", "cells": "human MCF10A breast epithelial cells, parental and CDH1-null", "reagents": "siRNA against human genes", "measured": "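Cell viability by CellTiter-Glo ATP luminescence, each line scaled to the mean of mock wells across plates, then CDH1-null over parental ratio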", "direction": "CDH1-null / parental viability ratio: higher = CDH1-null cells survive relatively better than parental", "note": "The deposit covers about 18,000 reagents; this is a random part of them. Further read-outs or replicates are left out here. Reagent sequences are not shown. The record does not give: the amount of reagent, the time to read-out."}
{"gene": "ZMYM4 (zinc finger MYM-type containing 4)", "CDH1-null / parental viability ratio": 1.21}
{"gene": "STMN3 (stathmin 3)", "CDH1-null / parental viability ratio": 1.03}
{"gene": "UPK1A (uroplakin 1A)", "CDH1-null / parental viability ratio": 0.99}
{"gene": "HLA-DQA1 (major histocompatibility complex, class II, DQ alpha 1)", "CDH1-null / parental viability ratio": 0.84}
{"gene": "CYBRD1 (cytochrome b reductase 1)", "CDH1-null / parental viability ratio": 0.96}
{"gene": "XKR4 (XK related 4)", "CDH1-null / parental viability ratio": 0.74}
{"gene": "FASN (fatty acid synthase)", "CDH1-null / parental viability ratio": 0.87}
{"gene": "SH2B2 (SH2B adaptor protein 2)", "CDH1-null / parental viability ratio": 0.81}
{"gene": "EIF4ENIF1", "CDH1-null / parental viability ratio": 0.7}
{"gene": "NDUFAF5 (NADH:ubiquinone oxidoreductase complex assembly factor 5)", "CDH1-null / parental viability ratio": 1.21}
{"gene": "SEC61B (SEC61 translocon subunit beta)", "CDH1-null / parental viability ratio": 1.27}
{"gene": "PSMD1 (proteasome 26S subunit, non-ATPase 1)", "CDH1-null / parental viability ratio": 1.21}
{"gene": "DGLUCY (D-glutamate cyclase)", "CDH1-null / parental viability ratio": 1.15}
{"gene": "PARM1 (prostate androgen-regulated mucin-like protein 1)", "CDH1-null / parental viability ratio": 1.27}
{"gene": "RASL10A (RAS like family 10 member A)", "CDH1-null / parental viability ratio": 0.88}
{"gene": "ZNF273 (zinc finger protein 273)", "CDH1-null / parental viability ratio": 0.89}
{"gene": "NFKBIZ (NFKB inhibitor zeta)", "CDH1-null / parental viability ratio": 1.05}
{"gene": "MRPS30 (mitochondrial ribosomal protein S30)", "CDH1-null / parental viability ratio": 0.98}
{"gene": "GNAI2 (G protein subunit alpha i2)", "CDH1-null / parental viability ratio": 1.07}
{"gene": "SERPINB4 (serpin family B member 4)", "CDH1-null / parental viability ratio": 0.73}
{"gene": "TFCP2 (transcription factor CP2)", "CDH1-null / parental viability ratio": 0.95}
{"gene": "ABHD4 (abhydrolase domain containing 4, N-acyl phospholipase B)", "CDH1-null / parental viability ratio": 1.24}
{"gene": "ZNF22 (zinc finger protein 22)", "CDH1-null / parental viability ratio": 0.78}
{"gene": "SNRPD1 (small nuclear ribonucleoprotein D1 polypeptide)", "CDH1-null / parental viability ratio": 2}
{"gene": "ENO2 (enolase 2)", "CDH1-null / parental viability ratio": 0.95}
{"gene": "SLIT2 (slit guidance ligand 2)", "CDH1-null / parental viability ratio": 1.06}
{"gene": "ANGPTL1 (angiopoietin like 1)", "CDH1-null / parental viability ratio": 0.86}
{"gene": "LCE1C (late cornified envelope 1C)", "CDH1-null / parental viability ratio": 0.94}
{"gene": "TMEM208 (transmembrane protein 208)", "CDH1-null / parental viability ratio": 1.15}
{"gene": "PKD1L2 (polycystin 1 like 2 (gene/pseudogene))", "CDH1-null / parental viability ratio": 1.21}
{"gene": "SLC6A17", "CDH1-null / parental viability ratio": 1.25}
{"gene": "LIMD1 (LIM domain containing 1)", "CDH1-null / parental viability ratio": 1.08}
{"gene": "CIITA (class II major histocompatibility complex transactivator)", "CDH1-null / parental viability ratio": 0.96}
{"gene": "SMARCC2 (SWI/SNF related BAF chromatin remodeling complex subunit C2)", "CDH1-null / parental viability ratio": 0.98}
{"gene": "ZNF549 (zinc finger protein 549)", "CDH1-null / parental viability ratio": 1.14}

3 successive records already listed, for reference:
{"gene": "TFCP2 (transcription factor CP2)", "CDH1-null / parental viability ratio": 0.95}
{"gene": "ABHD4 (abhydrolase domain containing 4, N-acyl phospholipase B)", "CDH1-null / parental viability ratio": 1.24}
{"gene": "ZNF22 (zinc finger protein 22)", "CDH1-null / parental viability ratio": 0.78}
